{"source": "paper PMC12040169", "about": "(PLOS Biology, 2025)", "note": "The list shows a part of the results."}
{"test_system": "T1, CTL2-GFP (C. trachomatis L2/434/Bu, GFP-expressing)", "T1 construct": "L2/434/Bu, GFP-expressing", "design": "species or system HeLa; Intracellular C. trachomatis growth in HeLa cells, bulk GFP fluorescence relative to DMSO", "details": "bulk GFP, single well; 28.5 h, 10 µM; inhibitor", "units": {"% of control remaining": "%"}}
{"smiles": "O=C(c1cc2ncc(CCO)cn2n1)N1CCC(c2ccccc2Cl)C1", "note": "(stereo not shown) [CBK307266]", "% of control remaining": 111.363}
{"smiles": "COc1cccc(CNc2ccc(S(N)(=O)=O)cc2)c1OCc1ccccc1F", "note": "[CBK267906]", "% of control remaining": 92.1021}
{"smiles": "CC(C)[C@H]1NC(=O)[C@@H]2[C@@H](NC(=O)NC3CCCCC3)CCN2C1=O", "note": "[CBK289264]", "% of control remaining": 109.138}
{"smiles": "CCCc1cc(C(=O)N2CCCC(COc3cccc(F)c3)C2)[nH]n1", "note": "(stereo not shown) [CBK306776]", "% of control remaining": 95.0114}
{"smiles": "Cc1cccc(CN2CCC3(CCc4ccccc4C(=O)N3)C2)n1", "note": "(stereo not shown) [CBK284619]", "% of control remaining": 120.889}
{"smiles": "Cc1nnc(Sc2ncccc2C(F)(F)F)s1", "note": "[CBK115211]", "% of control remaining": 100}
{"smiles": "COc1ccc2[nH]c(C(=O)O)c(CCC(=O)O)c2c1", "note": "[CBK266582]", "% of control remaining": 92.4287}
{"smiles": "CCn1c(=N)n(CC(=O)O)c2ccccc21", "note": "[CBK262906B]", "% of control remaining": 100}
{"smiles": "Nc1nc(-c2ccc(F)cc2)c2c(n1)-c1ccccc1C2=O", "note": "[CBK287881]", "% of control remaining": 78.7264}
{"smiles": "N#Cc1ccc(Cn2cc(C(=O)C(N)=O)c3ccccc32)cc1", "note": "[CBK270062]", "% of control remaining": 147.859}
{"smiles": "OCc1cccc(-c2cncc(NC3CCC(O)CC3)n2)c1", "note": "(stereo not shown) [CBK065448]", "% of control remaining": 115.099}
{"smiles": "CC12CCC(C(=O)O)(C/C1=N\\N)C2(C)C", "note": "(stereo not shown) [CBK265268]", "% of control remaining": 100}
{"smiles": "Cc1ccc(CCCC(=O)N2CCc3c([nH]c4c(C)cccc34)C23CCN(Cc2ccc(F)cc2)C3)cc1", "note": "(stereo not shown) [CBK066979]", "% of control remaining": 79.8214}
{"smiles": "CCN1CCN(Cc2c(O)ccc3c(=O)c(-c4ccccc4OC)c(C(F)(F)F)oc23)CC1", "note": "[CBK263692]", "% of control remaining": 100}
{"smiles": "Cc1ccc(C(=O)N2CCC(Cc3ccccc3)CC2)cn1", "note": "[CBK200179]", "% of control remaining": 95.3698}
{"smiles": "CCc1nn(CC(=O)OC(C)C)c(=O)c2cc3sccc3n12", "note": "[CBK284076]", "% of control remaining": 133.473}
{"smiles": "O=S(=O)(Nc1cc(-c2ccco2)n[nH]1)c1ccc(Br)cc1C(F)(F)F", "note": "[CBK067286]", "% of control remaining": 139.646}
{"smiles": "O=S(=O)(c1ccc(C(F)(F)F)cc1Cl)N1CCCN(Cc2ccc(F)cc2F)CC1", "note": "[CBK062946]", "% of control remaining": 125.262}
{"smiles": "Cc1ccc2c(c1)c(-c1ccccc1)c(-c1ccccc1)n2CC(O)Cn1cnc(-c2ccccc2)c1-c1ccccc1", "note": "(stereo not shown) [CBK262531]", "% of control remaining": 100}
{"smiles": "O=C(NCO)c1ccccc1O", "note": "[CBK012717]", "% of control remaining": 127.75}
{"smiles": "COc1ccc(CCNC(=O)N2CCN(c3cc(C(F)(F)F)ccn3)CC2)cc1OC", "note": "[CBK162330]", "% of control remaining": 103.66}
{"smiles": "Cc1[nH]c(=O)[nH]c(=O)c1S(=O)(=O)Nc1ccc(S(N)(=O)=O)cc1", "note": "[CBK262123]", "% of control remaining": 102.119}
